No constants are given. Whether binding was seen depends on the method and setting. Binding seen in cells or lysates may run through a third protein. Here binding means that the protein was enriched with, or labelled near, the bait; the list need not be complete. For part of these data: A no says only that the protein was not detected with the bait.
Legend:
[1] = target: FLAG-HA-tagged AKAP95 (101–692) (human) (UniProt O43823); test: affinity purification with mass spectrometry; nuclear extracts of Flp-In-293 stable lines on anti-FLAG M2 agarose, BC300 with 0.1% NP40, 4 °C, 6 h; FLAG peptide elution, SDS-PAGE, MALDI mass spectrometry; proteins found with control cells excluded
[2] = target: FLAG-HA-tagged full-length human AKAP95 (human) (UniProt O43823); test: as above

The chains behind the UniProt entries cited, without tags or fusion partners. Where a name states a change or a piece, a line headed by the entry shows the natural chain unless it says otherwise. A line that says so, or that is headed by a name, gives the form on record, which may keep a tag or linker. Residues count along the entry.
UniProt O43823: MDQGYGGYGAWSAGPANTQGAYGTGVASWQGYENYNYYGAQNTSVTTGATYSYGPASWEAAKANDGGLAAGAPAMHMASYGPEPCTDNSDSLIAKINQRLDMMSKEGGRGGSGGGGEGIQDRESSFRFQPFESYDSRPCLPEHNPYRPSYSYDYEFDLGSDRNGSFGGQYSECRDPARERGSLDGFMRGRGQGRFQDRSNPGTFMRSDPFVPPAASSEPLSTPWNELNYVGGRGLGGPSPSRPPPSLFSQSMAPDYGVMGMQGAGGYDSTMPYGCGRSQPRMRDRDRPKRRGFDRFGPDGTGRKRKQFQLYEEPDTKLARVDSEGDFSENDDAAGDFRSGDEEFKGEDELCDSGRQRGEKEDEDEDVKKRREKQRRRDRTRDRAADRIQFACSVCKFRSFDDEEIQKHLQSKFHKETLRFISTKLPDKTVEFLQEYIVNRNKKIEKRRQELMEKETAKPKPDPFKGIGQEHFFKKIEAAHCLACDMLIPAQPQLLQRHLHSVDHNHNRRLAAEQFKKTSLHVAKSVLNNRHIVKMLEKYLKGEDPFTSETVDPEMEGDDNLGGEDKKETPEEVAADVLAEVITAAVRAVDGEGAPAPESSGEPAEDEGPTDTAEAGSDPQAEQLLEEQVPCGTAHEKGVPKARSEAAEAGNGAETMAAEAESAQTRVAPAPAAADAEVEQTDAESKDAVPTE
FLAG-HA-tagged AKAP95 (101–692): residues 101-692 of O43823
UniProt P17844: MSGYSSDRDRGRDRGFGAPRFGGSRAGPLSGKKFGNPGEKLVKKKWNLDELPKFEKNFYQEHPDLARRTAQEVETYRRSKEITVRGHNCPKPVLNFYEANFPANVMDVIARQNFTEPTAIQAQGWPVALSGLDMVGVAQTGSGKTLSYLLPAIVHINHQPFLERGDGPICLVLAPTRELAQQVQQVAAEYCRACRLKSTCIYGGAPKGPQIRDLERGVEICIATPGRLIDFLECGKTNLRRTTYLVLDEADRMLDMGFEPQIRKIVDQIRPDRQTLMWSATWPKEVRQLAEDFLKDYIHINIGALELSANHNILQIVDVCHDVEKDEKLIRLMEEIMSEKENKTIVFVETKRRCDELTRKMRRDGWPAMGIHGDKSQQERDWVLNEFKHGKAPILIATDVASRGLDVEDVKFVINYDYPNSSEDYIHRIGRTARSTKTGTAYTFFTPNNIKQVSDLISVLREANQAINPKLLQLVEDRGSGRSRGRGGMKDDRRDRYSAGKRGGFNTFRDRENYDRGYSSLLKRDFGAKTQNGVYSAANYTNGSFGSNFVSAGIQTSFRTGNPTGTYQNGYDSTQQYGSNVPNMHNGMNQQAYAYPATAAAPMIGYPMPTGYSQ
UniProt Q01844: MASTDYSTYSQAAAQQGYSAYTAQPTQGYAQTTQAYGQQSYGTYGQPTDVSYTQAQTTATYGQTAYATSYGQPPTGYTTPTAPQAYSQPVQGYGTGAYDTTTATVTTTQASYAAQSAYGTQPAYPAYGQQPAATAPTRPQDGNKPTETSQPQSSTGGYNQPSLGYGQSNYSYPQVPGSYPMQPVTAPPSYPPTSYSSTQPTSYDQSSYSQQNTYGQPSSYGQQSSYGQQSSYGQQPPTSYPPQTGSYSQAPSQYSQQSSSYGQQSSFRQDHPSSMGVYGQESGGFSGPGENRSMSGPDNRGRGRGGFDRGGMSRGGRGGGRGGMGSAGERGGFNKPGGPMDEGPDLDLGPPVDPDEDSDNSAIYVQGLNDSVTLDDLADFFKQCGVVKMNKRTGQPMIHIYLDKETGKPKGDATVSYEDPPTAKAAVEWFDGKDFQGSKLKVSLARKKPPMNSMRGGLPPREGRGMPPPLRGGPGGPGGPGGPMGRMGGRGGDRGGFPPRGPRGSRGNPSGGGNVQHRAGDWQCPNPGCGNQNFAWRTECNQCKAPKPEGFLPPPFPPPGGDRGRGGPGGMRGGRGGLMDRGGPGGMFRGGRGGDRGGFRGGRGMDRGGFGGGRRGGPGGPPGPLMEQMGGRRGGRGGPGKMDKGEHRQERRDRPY
UniProt Q92841: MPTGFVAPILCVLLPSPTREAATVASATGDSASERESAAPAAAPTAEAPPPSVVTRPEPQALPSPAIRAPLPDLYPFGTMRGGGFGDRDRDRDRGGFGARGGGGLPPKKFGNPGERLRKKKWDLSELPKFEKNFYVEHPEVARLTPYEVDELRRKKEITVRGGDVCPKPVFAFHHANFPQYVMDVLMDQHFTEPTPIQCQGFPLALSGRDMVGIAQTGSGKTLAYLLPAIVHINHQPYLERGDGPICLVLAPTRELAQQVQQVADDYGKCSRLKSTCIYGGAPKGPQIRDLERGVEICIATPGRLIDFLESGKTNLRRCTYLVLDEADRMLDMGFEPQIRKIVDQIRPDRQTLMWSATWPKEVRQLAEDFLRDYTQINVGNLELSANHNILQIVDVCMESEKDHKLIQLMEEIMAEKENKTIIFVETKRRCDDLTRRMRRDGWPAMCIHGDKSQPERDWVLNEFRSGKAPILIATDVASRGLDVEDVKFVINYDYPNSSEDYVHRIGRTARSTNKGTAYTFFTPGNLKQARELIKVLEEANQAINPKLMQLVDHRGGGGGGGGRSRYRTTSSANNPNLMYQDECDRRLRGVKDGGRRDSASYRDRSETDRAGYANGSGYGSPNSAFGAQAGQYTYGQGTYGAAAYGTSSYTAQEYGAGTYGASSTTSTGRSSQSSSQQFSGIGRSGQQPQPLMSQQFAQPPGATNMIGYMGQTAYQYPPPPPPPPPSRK
UniProt P31943: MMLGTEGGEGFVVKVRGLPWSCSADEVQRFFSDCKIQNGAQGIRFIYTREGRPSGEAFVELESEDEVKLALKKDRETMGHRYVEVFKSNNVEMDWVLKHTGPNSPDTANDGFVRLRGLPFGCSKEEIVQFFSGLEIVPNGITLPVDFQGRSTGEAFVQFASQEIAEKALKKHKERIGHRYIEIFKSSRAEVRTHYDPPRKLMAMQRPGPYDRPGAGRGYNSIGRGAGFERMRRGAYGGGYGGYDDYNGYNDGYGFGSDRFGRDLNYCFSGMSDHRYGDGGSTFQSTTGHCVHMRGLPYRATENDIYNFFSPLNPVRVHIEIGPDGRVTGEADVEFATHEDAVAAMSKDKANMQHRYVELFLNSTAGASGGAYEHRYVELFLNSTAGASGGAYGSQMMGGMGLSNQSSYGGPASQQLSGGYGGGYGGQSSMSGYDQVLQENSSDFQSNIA
UniProt Q8IZL8: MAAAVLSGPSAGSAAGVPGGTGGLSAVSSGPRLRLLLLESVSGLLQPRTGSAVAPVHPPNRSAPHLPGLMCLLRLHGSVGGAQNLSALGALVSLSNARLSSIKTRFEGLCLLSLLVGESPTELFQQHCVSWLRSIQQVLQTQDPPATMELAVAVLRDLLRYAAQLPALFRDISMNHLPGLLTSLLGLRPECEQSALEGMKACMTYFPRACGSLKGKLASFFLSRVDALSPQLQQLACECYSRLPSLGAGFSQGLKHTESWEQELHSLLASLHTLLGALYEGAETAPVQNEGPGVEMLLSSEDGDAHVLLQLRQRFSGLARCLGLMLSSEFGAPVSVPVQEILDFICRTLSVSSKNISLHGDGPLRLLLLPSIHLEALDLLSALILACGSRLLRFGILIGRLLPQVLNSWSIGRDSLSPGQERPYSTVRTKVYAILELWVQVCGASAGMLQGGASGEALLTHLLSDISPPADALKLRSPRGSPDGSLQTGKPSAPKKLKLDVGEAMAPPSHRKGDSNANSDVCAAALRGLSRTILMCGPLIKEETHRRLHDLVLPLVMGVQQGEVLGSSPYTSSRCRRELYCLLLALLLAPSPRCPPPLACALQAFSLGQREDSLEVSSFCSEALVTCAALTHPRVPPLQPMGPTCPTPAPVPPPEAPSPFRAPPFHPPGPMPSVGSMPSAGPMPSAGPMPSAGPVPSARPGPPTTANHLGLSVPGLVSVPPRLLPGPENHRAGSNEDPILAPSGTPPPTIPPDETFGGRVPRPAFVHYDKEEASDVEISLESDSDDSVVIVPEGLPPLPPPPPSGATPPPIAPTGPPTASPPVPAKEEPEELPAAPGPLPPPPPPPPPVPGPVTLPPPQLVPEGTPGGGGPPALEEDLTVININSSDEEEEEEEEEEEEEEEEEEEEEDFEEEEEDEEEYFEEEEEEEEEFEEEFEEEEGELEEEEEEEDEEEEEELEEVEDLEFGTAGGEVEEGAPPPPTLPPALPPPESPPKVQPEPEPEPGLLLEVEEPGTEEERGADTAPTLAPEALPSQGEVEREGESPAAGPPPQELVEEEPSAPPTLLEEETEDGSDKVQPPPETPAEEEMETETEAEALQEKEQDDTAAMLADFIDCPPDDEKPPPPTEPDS
UniProt Q6NZY4: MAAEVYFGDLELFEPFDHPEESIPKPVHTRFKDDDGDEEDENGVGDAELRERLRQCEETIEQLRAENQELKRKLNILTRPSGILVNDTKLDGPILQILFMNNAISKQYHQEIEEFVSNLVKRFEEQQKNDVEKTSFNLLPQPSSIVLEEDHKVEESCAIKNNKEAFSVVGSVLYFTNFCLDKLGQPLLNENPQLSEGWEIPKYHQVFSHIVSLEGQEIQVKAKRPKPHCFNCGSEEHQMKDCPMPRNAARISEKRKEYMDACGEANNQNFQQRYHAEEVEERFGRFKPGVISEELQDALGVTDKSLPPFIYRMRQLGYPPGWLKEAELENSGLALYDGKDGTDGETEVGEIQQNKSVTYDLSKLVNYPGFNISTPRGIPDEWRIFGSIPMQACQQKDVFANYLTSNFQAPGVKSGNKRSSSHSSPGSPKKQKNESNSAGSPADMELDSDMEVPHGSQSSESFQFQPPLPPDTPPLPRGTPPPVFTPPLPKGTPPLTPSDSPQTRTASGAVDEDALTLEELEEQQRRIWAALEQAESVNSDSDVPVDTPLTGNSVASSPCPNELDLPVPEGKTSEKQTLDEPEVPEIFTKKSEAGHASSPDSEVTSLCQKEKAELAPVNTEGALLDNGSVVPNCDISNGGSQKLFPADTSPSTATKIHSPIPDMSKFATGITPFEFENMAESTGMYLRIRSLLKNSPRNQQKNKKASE

| Substance | binding [1] | binding [2] |
| --- | --- | --- |
| DDX5 (endogenous) (from UniProt P17844 1-614) | no binding | binds |
| EWS (endogenous) (from UniProt Q01844 1-656) | no binding | binds |
| DDX17 (endogenous) (from UniProt Q92841 1-729) | no binding | binds |
| hnRNP K (endogenous) (from UniProt P61978 1-463) | no binding | binds |
| hnRNP H1 (endogenous) (from UniProt P31943 1-449) | – | binds |
| PELP1 (endogenous) (from UniProt Q8IZL8 1-1130) | no binding | binds |
| ZCCHC8 (endogenous) (from UniProt Q6NZY4 1-707) | – | binds |

From article PMC5105168
